These results are taken from patent US6716635B2, “Method for identifying regulators of protein-advanced glycation end product (protein-AGE) formation” (University of Kentucky Research Foundation, priority 2000, dated 2004).

The subject of the series is AGE-BSA. Kind of series: AGE-BSA test (fluorescence quenching, false positives). Further details: species or system bovine.

Molecules are shown by their SMILES.

Regarding `CC(C)(S)C(N)C(=O)O` (racemic) [D,L-Penicillamine], the “quenching of AGE-BSA fluorescence, in words” value was “found not to be false positives”.
Under `CC(C)(S)[C@@H](N)C(=O)O` [D-Penicillamine, reference compound] stands “found not to be false positives”.
